Part of at least one peptide drawing is inferred or uncertain, most often the ends. Where a SMILES comes first, the peptide text is derived from it. [ ]: non-standard residue; d: D form. The star is where a group is joined. Tyr(Nα,Nα-allyl2) = C=CCN(CC=C)[C@@H](Cc1ccc(O)cc1)C(=O)*; Aib = CC(C)(N)C(=O)O
Target: T1, δ opioid receptors (Mus musculus, UniProt P32300)
T1 construct: Bioassays Using Isolated Organ Preparations; from tissue; host or cells: mouse vas deferens, isolated organ preparation
Assay: mouse vas deferens (MVD) assay, inhibition of electrically evoked contractions
Format: cell-based
Conditions: in comparison with some of the antagonists described in this patent application

Sequences of proteins named here, by UniProt entry; tags and fusion partners are left off. A change or cut given only in a name is not applied to a line headed by its entry.
UniProt P32300, whole entry: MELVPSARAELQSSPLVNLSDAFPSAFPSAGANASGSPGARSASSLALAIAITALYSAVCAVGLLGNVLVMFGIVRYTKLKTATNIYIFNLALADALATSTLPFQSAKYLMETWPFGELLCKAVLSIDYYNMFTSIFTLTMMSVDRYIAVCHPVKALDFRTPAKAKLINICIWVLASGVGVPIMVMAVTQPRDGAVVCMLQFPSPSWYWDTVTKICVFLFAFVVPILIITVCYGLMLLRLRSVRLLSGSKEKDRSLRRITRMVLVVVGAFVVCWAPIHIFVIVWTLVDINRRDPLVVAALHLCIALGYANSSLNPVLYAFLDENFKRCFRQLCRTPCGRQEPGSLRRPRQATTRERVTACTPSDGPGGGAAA

C=CCN(CC=C)[C@@H](Cc1ccc(O)cc1)C(=O)NC(C)(C)C(=O)NC(C)(C)C(=O)N[C@@H](Cc1ccccc1)C(=O)N[C@@H](CC(C)C)C(=O)O [ICI 174864, N,N-diallyl-Tyr-Aib-Aib-Phe-Leu-OH] ({Tyr(Nα,Nα-allyl2)}-[Aib][Aib]FL-OH)
δ antagonist potency in the MVD assay, times less potent than some of the antagonists of this application: 200 times less potent

From US5811400A, “Peptide derivatives with δ opioid receptor antagonist or mixed μ agδ antagonist effects” (Astra AB, priority 1994, dated 1998)
